Source: US4593043A, “Mercapto acyl-carnitines and pharmaceutical compositions containing same” (Sigma-Tau Industrie Farmaceutiche Riunite S.p.A., priority 1981, dated 1986)
Counter-ions that a name gives are not always drawn. At least one compound was matched to its structure with a doubt left.

Assay: Mucolytic activity in vitro on human sputum (thromboelastograph, method of Morandini et al.)
Conditions: for Percentage drop ± s.e. of the tracing versus maximum peak (mucolytic activity index), dilution 1/30: 1 ml of a 10% solution at dilution 1/30; for Percentage drop ± s.e. of the tracing versus maximum peak (mucolytic activity index), dilution 1/60: 1 ml of a 10% solution at dilution 1/60
Procedure: The tests were carried out in vitro by using the method disclosed by Morandini et al. (Lotta contro la tubercolosi 47, n. 4, 1977). A thromboelastograph was used to follow the variations induced by the compounds of general formula (I) and acetylcisteine on the rheological properties of human sputum.

SMILES	Percentage drop ± s.e. of the tracing versus maximum peak (mucolytic activity index), dilution 1/30 [%]	Percentage drop ± s.e. of the tracing versus maximum peak (mucolytic activity index), dilution 1/60 [%]
C[N+](C)(C)CC(CC(=O)O)OC(=O)CCS (stereo not shown) [3-mercapto propionyl carnitine Cl, 3-mercapto propionyl carnitine hydrochloride]	87.9 ± 7	48.2 ± 5
C[N+](C)(C)CC(CC(=O)O)OC(=O)CCCS (stereo not shown) [4-mercapto butyryl carnitine Cl, 4-mercapto butyryl carnitine hydrochloride]	92.5 ± 7	45.8 ± 4
